Test results published in patent publication US20080255127A1, “Pesticide Formulations with a Crystallization Risk, and a Method for Their Preparation” (priority 2005, published 2008).
For at least one compound, name, drawing or mass did not settle the structure.

Assay: Emulsion test of EW formulations Dn (phase separation)
Format: physicochemical
Parameters: key: The worst emulsion, which however was still acceptable, scored +; A single + sign means that some oil did separate out after 2 hours; a good emulsion scored ++; A triple plus sign (+++) means that no separation was noted at the end of 2 h, and complete re-emulsification was observed at the end of 24 h
Settings: 5.0% pesticide in formulation Dn; observed at 2 h and 24 h
In the case of `Cc1ccc(C(C)NC(=O)[C@@H](NC(=O)OC(C)C)C(C)C)cc1` (stereo partly drawn) [iprovalicarb], the “Emulsion (quality, phase separation)” value is reported as “+++”.
With `O=C(O)C1(C(=O)Nc2ccc(Cl)cc2Cl)CC1` [cyclanilide] the “Emulsion (quality, phase separation)” value was “++”.
For `CC(C)(C)C(O)C(Cc1ccc(Cl)cc1)n1cncn1` (stereo not drawn) [paclobutrazole], the “Emulsion (quality, phase separation)” value was “+++”.
In the case of `O=C(O)COc1ccc(Cl)cc1Cl` [2,4-D], the “Emulsion (quality, phase separation)” value is reported as “+++”.
In the case of `O=c1oc2ccccc2c(O)c1C(CC(O)c1ccc(-c2ccc(Br)cc2)cc1)c1ccccc1` (stereo not drawn) [bromadiolone], the “Emulsion (quality, phase separation)” value is reported as “++”.
In the case of `Cc1cc(Cl)ccc1OCC(=O)O` [MCPA], the “Emulsion (quality, phase separation)” value is reported as “+++”.
